Results reported in patent US20230413814A1, “A METHOD FOR REMOVING A BIOFILM” (TECHNOLOGICAL UNIVERSITY DUBLIN, priority 2020, published 2023).
Entries after “also recorded” stand apart in the source; their conditions may differ. At least one structure is not confirmed: it was looked up by name or label, or the drawing left a doubt.

Columns and labels:
[1] = tested on: Klebsiella pneumoniae NCIMB 418; assay: Pellicle formation on polypropylene surfaces, crystal violet assay; type: cell-based; settings: various concentrations of DHA, 7 days, 37° C., FIG. 2
[2] = tested on: Klebsiella pneumoniae NCIMB 418; assay: Biofilm formation on glass coverslips, crystal violet assay; type: cell-based; settings: 6 well plate, 24 hours, 37° C., one experiment, FIG. 3

## CC/C=C\C/C=C\C/C=C\C/C=C\C/C=C\C/C=C\CCC(=O)O [DHA, docosahexaenoic acid]
[1]
  pellicle formation on polypropylene surfaces: significantly reduces the ability of bacteria to form pellicles on polypropylene surfaces
[2]
  biofilm formation on glass coverslips: No significant reduction in biofilm formation; also recorded: a reduction in severity or extent of the biofilm formed was seen
